Laboratory results as given in the supplement of paper PMC7024190.
This is one part of the list. This data set is noisy: repeats of one test often differ as much as different tests do.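 A first-round screen of about ten thousand compounds sought those raising reporter output, using human embryonic kidney cells briefly transfected with a plasmid carrying a Renilla luciferase gene driven by the HSV-TK promoter.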

System: HEK 293FT
Assay: log relative Renilla luciferase luminescence (reporter expression vs reference, reference not stated) (log (base not stated)); higher = higher recombinant reporter expression
Conditions: 10 µM; time after transfection 48 h
Experimental: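 HEK 293FT cells transiently transfected with pRL-TK (Renilla luciferase) were treated with compounds at 10 uM and luminescence was read about 42 h later. Values are log relative Renilla luminescence (log base and reference not stated). Single-pass screen; ICCB Known Bioactives library.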

SMILES	log
CS(=O)(=O)Nc1ccc([N+](=O)[O-])cc1OC1CCCCC1	0.0335
CCCC(=O)Nc1ncnc2c1ncn2[C@@H]1O[C@@H]2COP(=O)(O)O[C@H]2[C@H]1OC(=O)CCC [Dibutyrylcyclic AMP]	0.275
COC(=O)C1=C(C)NC(C)=C(C(=O)OCCCN2CCC(c3ccccc3)(c3ccccc3)CC2)[C@H]1c1cccc([N+](=O)[O-])c1 [Niguldipine]	0.186
CCCCC/C=C\C\C=C/C=C/C=C/[C@@H](SC[C@H](NC(=O)CC[C@H](N)C(=O)O)C(=O)NCC(=O)O)[C@@H](O)CCCC(=O)O [Leukotriene C4]	-0.232
CCCCCC(O)C=CC1C(O)CC(O)C1CC=CCCCC(=O)O (stereo not drawn) [8-EPI-prostaglandin F2a]	-0.335
CCCCCCCCCCCCCCCC(O)C(N)CO (racemic) [DL-Dihydrosphingosine]	0.0279
CCCCCCCCCCC/C=C\C/C=C\CCCC(=O)O [Eicosa-5,8-dienoic acid (20:2 n-12)]	0.0744
O=c1[nH]c2ccccc2c2ccccc12 [Phenanthridinone [6(5H)-Phenanthridinone]]	-0.124
COCCCCCCCCCCCC(=O)O [12-Methoxydodecanoic acid]	0.0772
CC(C)NCC(O)COc1cccc2ccccc12 (stereo not given) [Propranolol (S-)]	-0.254
CC(C(C)N1CC(=O)NC(=O)C1)N1CC(=O)NC(=O)C1 (stereo not given)	0.532
CCCCC/C=C\C/C=C\C/C=C\C/C=C\CCCC(=O)O[C@@H](CO)COCCCCCCCCCCCCCCCC [1-Hexadecyl-2-arachidonoyl-glycerol]	-0.167
CCCCCCCC/C=C\C/C=C\C/C=C\CCCC(=O)O [Mead acid (20:3 n-9)]	-0.0143
Cn1c2ccccc2c2c3c(c4c5ccccc5n(CCC#N)c4c21)CNC3=O	-1.38
CCCCCC(=O)/C=C/C=C\C/C=C\C/C=C\CCCC(=O)O [15-Ketoeicosatetraenoic acid]	0.0498
CCCCCCCCCCCCCCC[C@@H](O)[C@H](CO)NC(=O)CCCCCCC [C8 Dihydroceramide]	0.24
CC1(C)CCC2=C(O1)c1ccccc1C(=O)C2=O [b-Lapachone]	-1.8
CCCCC[C@H](O)/C=C/C=C\C=C\C=C\[C@@H](O)[C@@H](O)CCCC(=O)O [Lipoxin A4]	-0.136
Cc1[nH]c(=O)c(C#N)cc1-c1ccncc1 [Milrinone]	-0.129
COc1cc2c(cc1OC)-c1c/c(=N\c3c(C)cc(C)cc3C)n(C)c(=O)n1CC2 [Trequinsin]	-0.0215

Reprinted at random: 2 records from the list, in no set order.
SMILES	log
Cn1c2ccccc2c2c3c(c4c5ccccc5n(CCC#N)c4c21)CNC3=O	-1.38
CCCCCC(=O)/C=C/C=C\C/C=C\C/C=C\CCCC(=O)O [15-Ketoeicosatetraenoic acid]	0.0498

Further results:

SMILES	log
O=C(O)c1cc(N(Cc2ccccc2O)Cc2cc(O)ccc2O)ccc1O [Lavendustin A]	0.32
CCCCC/C=C\C/C=C\C/C=C\C/C=C\CCCC(=O)O [Arachidonic acid (20:4, n-6)]	0.0437
COc1cc(CNC(=O)CCCC/C=C/C(C)C)ccc1O [Capsacin(E)]	-0.391
OC[C@@H]1NC[C@@H](O)[C@H](O)[C@H]1O [Deoxynorjrimycin(1)]	0.373
N#CC(=Cc1cc(Cl)cc(Cl)c1)c1cccnc1	-0.247
NC(N)=NCCNS(=O)(=O)c1cccc2cnccc12	0.183
CCCCC[C@H](O)/C=C/[C@@H]1[C@H]2C/C(=C/CCCC(=O)O)O[C@H]2C[C@H]1O [Prostaglandin I2 Na]	-0.0513
CCCCCCCCCCCCCCCC(=O)N[C@@H](COP(=O)(O)O)C(=O)O	-0.22
O=C1CCc2c(ccc3ccccc23)O1 [Splitomycin]	0.0475
CCCCCCCCCC(=O)NC(CN1CCOCC1)C(O)c1ccccc1 (racemic)	-0.298
CCCCCCCC/C=C\CCCCCCCC(=O)OC[C@H](CO)OC(C)=O [1-Oleoyl-2-acetyl-glycerol]	0.0468
CCCCCCCCCCCCCC(=O)N[C@@H](C)[C@H](O)c1ccccc1 [MAPP, L-erythro]	-0.172
C/C=C1\C2C=C(C)CC1(N)c1ccc(=O)[nH]c1C2 (stereo not drawn) [Huperzine A [(-)-Huperzine A]]	-0.13
C=C1CCC(O)C/C1=C\C=C1\CCCC2(C)C1CCC2C(C)CCC(O)C(C)(C)O (stereo not given) [24,25-Dihydroxyvitamin D3]	0.149
CC(C)c1cccc(=O)c(O)c1 [Hinokitiol]	0.243
O=C(O)CCCC=CCC1C2CCC(O2)C1CNNC(=O)Nc1ccccc1 (stereo not given)	-0.0896
CCCCC[C@H](O)/C=C/[C@@H]1[C@H]2C/C(=C/CCCC(=O)O)C[C@H]2C[C@H]1O [Carbacyclin]	0.238
O=C(O)CCCC=CCC1C(O)CC(O)C1C=CC(O)COc1cccc(Cl)c1 (stereo not given) [Cloprostenol Na]	-0.0134
Cc1ccc2c(c1)C(=O)C1(O)CCN(c3ccccc3)C1=N2 (stereo not given) [Blebbistatin]	-0.591
CCN(CC)CC(=O)Nc1c(C)cccc1C [Lidocaine]	0.0206
